Target: T1, B-cell maturation antigen (BCMA) on U266 cells (UniProt Q02223 1-184, limits assumed)
T1 sequence (looked up): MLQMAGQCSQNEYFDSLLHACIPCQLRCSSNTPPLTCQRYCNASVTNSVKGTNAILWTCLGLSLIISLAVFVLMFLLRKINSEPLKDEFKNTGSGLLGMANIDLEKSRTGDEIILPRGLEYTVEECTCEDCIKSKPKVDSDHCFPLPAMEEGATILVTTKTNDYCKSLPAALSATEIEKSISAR
Experiment: cell-based or functional assay

B1: BCMA-targeting chimeric antigen receptor (anti-BCMA scFv-CD8 hinge-CD8TM-41BB-CD3ζ), expressed on BCMA-tEGFR CAR T-cells (other)
chain: DIVLTQSPASLAMSLGKRATISCRASESVSVIGAHLIHWYQQKPGQPPKLLIYLASNLETGVPARFSGSGSGTDFTLTIDPVEEDDVAIYSCLQSRIFPRTFGGGTKLEIKGGGGSGGGGSGGGGSQIQLVQSGPELKKPGETVKISCKASGYTFTDYSINWVKRAPGKGLKWMGWINTETREPAYAYDFRGRFAFSLETSASTAYLQINNLKYEDTATYFCALDYSYAMDYWGQGTSVTVSSTTTPAPRPPTPAPTIASQPLSLRPEACRPAAGGAVHTRGLDFACDIYIWAPLAGTCGVLLLSLVITLYCRFSVVKRGRKKLLYIFKQPFMRPVQTTQEEDGCSCRFPEEEEGGCELRVKFSRSADAPAYQQGQNQLYNELNLGRREEYDVLDKRRGRDPEMGGKPRRKNPQEGLYNELQKDKMAEAYSEIGMKGERRRGKGHDGLYQGLSTATKDTYDALHMQALPPR
  killing of U266 cells at effector:target ratio of 10:1: 70%
